These are yes or no findings as the source states them, for the method shown. In cells and extracts the contact can be indirect. These calls come from enrichment with a bait or labelling near it, and not all partners need be listed. For some of these results: A no says only that the protein was not detected with the bait.
T1: NEK1 (endogenous) (human (endogenous in ARPE-19, HeLa, HEK293, U2OS)) (UniProt Q96PY6)
T1 sequence: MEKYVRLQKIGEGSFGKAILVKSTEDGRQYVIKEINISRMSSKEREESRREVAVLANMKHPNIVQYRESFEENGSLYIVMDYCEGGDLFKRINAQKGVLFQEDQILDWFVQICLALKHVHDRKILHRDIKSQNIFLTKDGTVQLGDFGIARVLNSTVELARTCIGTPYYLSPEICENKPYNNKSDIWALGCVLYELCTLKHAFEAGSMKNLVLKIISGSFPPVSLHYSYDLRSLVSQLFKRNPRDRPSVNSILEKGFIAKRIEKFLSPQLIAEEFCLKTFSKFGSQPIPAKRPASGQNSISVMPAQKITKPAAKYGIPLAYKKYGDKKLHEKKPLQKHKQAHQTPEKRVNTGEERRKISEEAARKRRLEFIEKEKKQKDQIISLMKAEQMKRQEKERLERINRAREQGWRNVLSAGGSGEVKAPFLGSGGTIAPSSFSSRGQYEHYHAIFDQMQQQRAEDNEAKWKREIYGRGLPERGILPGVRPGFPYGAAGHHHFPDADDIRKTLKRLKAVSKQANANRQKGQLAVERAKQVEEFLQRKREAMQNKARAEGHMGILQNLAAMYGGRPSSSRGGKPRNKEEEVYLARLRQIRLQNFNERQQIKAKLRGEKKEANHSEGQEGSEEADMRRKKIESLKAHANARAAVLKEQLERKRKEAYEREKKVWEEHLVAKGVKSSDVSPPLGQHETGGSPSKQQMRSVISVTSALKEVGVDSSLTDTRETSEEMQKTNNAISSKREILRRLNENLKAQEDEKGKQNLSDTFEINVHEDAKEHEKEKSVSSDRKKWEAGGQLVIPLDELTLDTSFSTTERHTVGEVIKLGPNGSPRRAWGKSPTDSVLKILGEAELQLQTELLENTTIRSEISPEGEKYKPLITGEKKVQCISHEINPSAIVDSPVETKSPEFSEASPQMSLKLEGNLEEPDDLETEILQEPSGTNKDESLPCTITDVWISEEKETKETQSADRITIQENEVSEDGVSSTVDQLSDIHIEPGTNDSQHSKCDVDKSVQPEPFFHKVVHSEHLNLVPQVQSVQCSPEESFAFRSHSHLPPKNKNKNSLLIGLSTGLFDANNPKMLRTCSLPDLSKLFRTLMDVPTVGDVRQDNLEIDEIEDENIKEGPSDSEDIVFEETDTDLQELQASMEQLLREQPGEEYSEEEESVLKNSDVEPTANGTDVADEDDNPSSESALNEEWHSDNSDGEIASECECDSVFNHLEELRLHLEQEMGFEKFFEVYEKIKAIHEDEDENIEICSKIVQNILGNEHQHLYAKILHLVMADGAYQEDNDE

T2: C21ORF2 (endogenous) (human (endogenous in ARPE-19, HeLa, HEK293, U2OS)) (UniProt O43822)
T2 sequence: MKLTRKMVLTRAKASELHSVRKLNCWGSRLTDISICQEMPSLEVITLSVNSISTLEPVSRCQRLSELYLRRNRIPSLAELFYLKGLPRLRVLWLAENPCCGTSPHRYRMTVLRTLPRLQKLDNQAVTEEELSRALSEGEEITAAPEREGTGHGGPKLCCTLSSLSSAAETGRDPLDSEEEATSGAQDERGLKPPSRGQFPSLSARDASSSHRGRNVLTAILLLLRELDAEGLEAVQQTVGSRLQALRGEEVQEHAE


How the values were obtained:
[1] = biological target: T1, NEK1 (endogenous) (human (endogenous in ARPE-19, HeLa, HEK293, U2OS)); test: affinity purification with mass spectrometry
[2] = biological target: T2, C21ORF2 (endogenous) (human (endogenous in ARPE-19, HeLa, HEK293, U2OS)); test: affinity purification with mass spectrometry

Molecule	binding [1]	binding [2]
C19ORF53 (endogenous) (from UniProt Q9UNZ5 1-99)	no binding	
COL8A1 (endogenous) (from UniProt P27658 28-744)	no binding	
C21ORF2 (endogenous) (protein, UniProt O43822-1 1-256) MKLTRKMVLTRAKASELHSVRKLNCWGSRLTDISICQEMPSLEVITLSVNSISTLEPVSRCQRLSELYLRRNRIPSLAELFYLKGLPRLRVLWLAENPCCGTSPHRYRMTVLRTLPRLQKLDNQAVTEEELSRALSEGEEITAAPEREGTGHGGPKLCCTLSSLSSAAETGRDPLDSEEEATSGAQDERGLKPPSRGQFPSLSARDASSSHRGRNVLTAILLLLRELDAEGLEAVQQTVGSRLQALRGEEVQEHAE	binds	
NEK1 (endogenous) (enzyme, UniProt Q96PY6-3 1-1286) MEKYVRLQKIGEGSFGKAILVKSTEDGRQYVIKEINISRMSSKEREESRREVAVLANMKHPNIVQYRESFEENGSLYIVMDYCEGGDLFKRINAQKGVLFQEDQILDWFVQICLALKHVHDRKILHRDIKSQNIFLTKDGTVQLGDFGIARVLNSTVELARTCIGTPYYLSPEICENKPYNNKSDIWALGCVLYELCTLKHAFEAGSMKNLVLKIISGSFPPVSLHYSYDLRSLVSQLFKRNPRDRPSVNSILEKGFIAKRIEKFLSPQLIAEEFCLKTFSKFGSQPIPAKRPASGQNSISVMPAQKITKPAAKYGIPLAYKKYGDKKLHEKKPLQKHKQAHQTPEKRVNTGEERRKISEEAARKRRLEFIEKEKKQKDQIISLMKAEQMKRQEKERLERINRAREQGWRNVLSAGGSGEVKAPFLGSGGTIAPSSFSSRGQYEHYHAIFDQMQQQRAEDNEAKWKREIYGRGLPERGILPGVRPGFPYGAAGHHHFPDADDIRKTLKRLKAVSKQANANRQKGQLAVERAKQVEEFLQRKREAMQNKARAEGHMGILQNLAAMYGGRPSSSRGGKPRNKEEEVYLARLRQIRLQNFNERQQIKAKLRGEKKEANHSEGQEGSEEADMRRKKIESLKAHANARAAVLKEQLERKRKEAYEREKKVWEEHLVAKGVKSSDVSPPLGQHETGGSPSKQQMRSVISVTSALKEVGVDSSLTDTRETSEEMQKTNNAISSKREILRRLNENLKAQEDEKGKQNLSDTFEINVHEDAKEHEKEKSVSSDRKKWEAGGQLVIPLDELTLDTSFSTTERHTVGEVIKLGPNGSPRRAWGKSPTDSVLKILGEAELQLQTELLENTTIRSEISPEGEKYKPLITGEKKVQCISHEINPSAIVDSPVETKSPEFSEASPQMSLKLEGNLEEPDDLETEILQEPSGTNKDESLPCTITDVWISEEKETKETQSADRITIQENEVSEDGVSSTVDQLSDIHIEPGTNDSQHSKCDVDKSVQPEPFFHKVVHSEHLNLVPQVQSVQCSPEESFAFRSHSHLPPKNKNKNSLLIGLSTGLFDANNPKMLRTCSLPDLSKLFRTLMDVPTVGDVRQDNLEIDEIEDENIKEGPSDSEDIVFEETDTDLQELQASMEQLLREQPGEEYSEEEESVLKNSDVEPTANGTDVADEDDNPSSESALNEEWHSDNSDGEIASECECDSVFNHLEELRLHLEQEMGFEKFFEVYEKIKAIHEDEDENIEICSKIVQNILGNEHQHLYAKILHLVMADGAYQEDNDE		binds
